This is one part of the list. The calls rarely recur for the same compound in another form.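 Kinases, fused to nanoluciferase, were expressed in K562 cells; luminescence was measured every 4 h from 2 to 18 h as percent of control (DMSO = 100%, positive control = 0%). A time point is decreased if signal falls significantly (2 sigma). Hits were called by the authors by a rule that is not shown; the count of time points alone does not decide it.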
Experiments:
Test in all cases: kinase-Nluc reporter destabilization hit call (1 = scored as downregulated) (binary); higher = compound decreases kinase abundance
Details in all cases: K562; 2-18 h
MAPK1 = MAPK1 (UniProt P28482)
MAPK4 = MAPK4 (UniProt P31152)
MAPKAPK2 = MAPKAPK2 (UniProt P49137)
MKNK1 = MKNK1 (UniProt Q9BUB5)
NTRK2 = NTRK2 (UniProt Q16620)
NTRK3 = NTRK3 (UniProt Q16288)
PAK4 = PAK4 (UniProt O96013)
PBK = PBK (UniProt Q96KB5)
PDGFRB = PDGFRB (UniProt P09619)
PDK1 = PDK1 (UniProt Q15118)
PDPK1 = PDPK1 (UniProt O15530)
PIK4CA = PIK4CA (UniProt P42356)
PIK4CB = PIK4CB (UniProt Q9UBF8)
PLK1 = PLK1 (UniProt P53350)
PRKAA1 = PRKAA1 (UniProt Q13131)
PRKCA = PRKCA (UniProt P17252)
PTK2 = PTK2 (UniProt Q05397)
PTK2B = PTK2B (UniProt Q14289)
RAF1 = RAF1 (UniProt P04049)
[1] = target: RAF1_S257L (clone: RAF1_mut) (UniProt P04049)

Protein sequences, listed by entry. Tags and fused reporters are not part of them. Lines headed by an entry give the natural chain unless they say otherwise; changes in a name come on top.
UniProt P28482, whole entry: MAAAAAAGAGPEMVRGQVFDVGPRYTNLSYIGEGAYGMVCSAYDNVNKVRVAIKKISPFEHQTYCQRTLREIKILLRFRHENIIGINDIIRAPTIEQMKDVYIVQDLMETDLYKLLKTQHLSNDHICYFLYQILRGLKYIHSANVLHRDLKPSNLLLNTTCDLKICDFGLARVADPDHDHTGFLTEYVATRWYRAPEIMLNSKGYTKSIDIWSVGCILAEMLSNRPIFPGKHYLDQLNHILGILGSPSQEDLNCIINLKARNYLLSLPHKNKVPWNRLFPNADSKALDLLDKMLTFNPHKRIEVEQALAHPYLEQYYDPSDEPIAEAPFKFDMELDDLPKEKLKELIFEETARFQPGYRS
UniProt P49137, whole entry, looked up: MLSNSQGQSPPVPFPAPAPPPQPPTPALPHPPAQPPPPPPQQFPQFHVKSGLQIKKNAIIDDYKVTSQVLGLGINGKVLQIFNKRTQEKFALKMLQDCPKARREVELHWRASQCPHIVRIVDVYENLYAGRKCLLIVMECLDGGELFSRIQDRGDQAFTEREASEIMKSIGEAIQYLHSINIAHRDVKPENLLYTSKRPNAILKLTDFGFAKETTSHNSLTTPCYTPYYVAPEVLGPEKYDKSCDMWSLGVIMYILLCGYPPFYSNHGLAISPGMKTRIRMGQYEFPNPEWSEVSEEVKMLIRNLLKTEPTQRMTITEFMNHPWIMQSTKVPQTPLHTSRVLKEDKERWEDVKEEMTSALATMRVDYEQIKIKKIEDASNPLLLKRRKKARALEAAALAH
UniProt Q16620, whole entry, looked up: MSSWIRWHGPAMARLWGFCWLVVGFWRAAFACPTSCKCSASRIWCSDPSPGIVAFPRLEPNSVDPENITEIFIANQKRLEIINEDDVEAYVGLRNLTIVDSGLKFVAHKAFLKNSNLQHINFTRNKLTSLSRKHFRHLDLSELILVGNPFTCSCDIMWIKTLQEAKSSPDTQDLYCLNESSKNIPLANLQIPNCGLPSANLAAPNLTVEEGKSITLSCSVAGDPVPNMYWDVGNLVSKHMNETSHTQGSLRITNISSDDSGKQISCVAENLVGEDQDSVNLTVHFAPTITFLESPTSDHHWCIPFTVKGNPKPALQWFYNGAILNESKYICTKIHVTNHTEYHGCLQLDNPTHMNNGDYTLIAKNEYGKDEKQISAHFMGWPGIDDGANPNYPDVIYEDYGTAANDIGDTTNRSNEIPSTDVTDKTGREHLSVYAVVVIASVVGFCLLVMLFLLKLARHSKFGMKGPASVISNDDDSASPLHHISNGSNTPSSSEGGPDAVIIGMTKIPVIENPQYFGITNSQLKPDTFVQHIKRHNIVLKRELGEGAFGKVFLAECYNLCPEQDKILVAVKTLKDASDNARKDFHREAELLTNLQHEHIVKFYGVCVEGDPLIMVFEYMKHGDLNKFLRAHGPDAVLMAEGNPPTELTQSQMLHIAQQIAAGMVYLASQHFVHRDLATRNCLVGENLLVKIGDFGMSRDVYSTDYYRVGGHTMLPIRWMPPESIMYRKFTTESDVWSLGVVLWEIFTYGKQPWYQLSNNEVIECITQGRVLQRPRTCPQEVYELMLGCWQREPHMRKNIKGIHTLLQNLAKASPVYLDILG
UniProt Q96KB5: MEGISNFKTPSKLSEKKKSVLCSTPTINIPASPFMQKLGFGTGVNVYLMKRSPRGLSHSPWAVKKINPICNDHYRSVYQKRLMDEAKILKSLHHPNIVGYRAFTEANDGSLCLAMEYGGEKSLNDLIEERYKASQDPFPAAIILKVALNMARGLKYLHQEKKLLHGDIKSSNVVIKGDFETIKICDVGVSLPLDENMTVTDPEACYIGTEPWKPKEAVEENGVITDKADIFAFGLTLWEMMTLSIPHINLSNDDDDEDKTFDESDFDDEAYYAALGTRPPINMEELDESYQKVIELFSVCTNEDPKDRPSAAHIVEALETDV
UniProt P09619, whole entry: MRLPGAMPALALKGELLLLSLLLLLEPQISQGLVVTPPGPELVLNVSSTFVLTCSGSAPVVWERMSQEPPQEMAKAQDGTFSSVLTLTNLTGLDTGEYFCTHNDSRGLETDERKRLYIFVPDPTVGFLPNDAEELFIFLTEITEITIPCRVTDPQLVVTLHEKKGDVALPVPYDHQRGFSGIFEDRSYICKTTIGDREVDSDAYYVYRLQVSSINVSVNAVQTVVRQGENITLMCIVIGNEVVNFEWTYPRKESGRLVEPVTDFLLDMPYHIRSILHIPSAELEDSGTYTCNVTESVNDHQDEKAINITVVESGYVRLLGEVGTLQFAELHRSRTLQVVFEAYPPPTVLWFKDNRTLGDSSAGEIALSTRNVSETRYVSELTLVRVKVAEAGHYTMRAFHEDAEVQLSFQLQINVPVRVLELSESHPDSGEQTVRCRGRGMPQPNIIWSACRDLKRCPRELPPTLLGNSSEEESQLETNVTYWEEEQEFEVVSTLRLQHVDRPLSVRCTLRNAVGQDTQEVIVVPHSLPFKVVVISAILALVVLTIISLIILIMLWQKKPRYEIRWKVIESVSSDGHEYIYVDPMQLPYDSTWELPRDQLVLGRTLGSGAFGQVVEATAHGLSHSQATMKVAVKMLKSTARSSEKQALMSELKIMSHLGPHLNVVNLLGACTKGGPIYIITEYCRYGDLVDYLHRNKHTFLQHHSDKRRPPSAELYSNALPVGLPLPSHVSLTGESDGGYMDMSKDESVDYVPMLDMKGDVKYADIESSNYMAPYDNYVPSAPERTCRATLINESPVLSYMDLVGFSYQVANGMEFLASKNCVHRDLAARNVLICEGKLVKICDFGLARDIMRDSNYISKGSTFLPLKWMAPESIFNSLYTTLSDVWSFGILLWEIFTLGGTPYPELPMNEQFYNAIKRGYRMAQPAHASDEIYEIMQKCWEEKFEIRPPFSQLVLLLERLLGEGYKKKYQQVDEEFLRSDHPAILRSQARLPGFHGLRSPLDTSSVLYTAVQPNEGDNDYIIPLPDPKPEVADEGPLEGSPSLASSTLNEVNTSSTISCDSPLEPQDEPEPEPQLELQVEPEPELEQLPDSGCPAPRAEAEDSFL
UniProt Q15118, whole entry, looked up: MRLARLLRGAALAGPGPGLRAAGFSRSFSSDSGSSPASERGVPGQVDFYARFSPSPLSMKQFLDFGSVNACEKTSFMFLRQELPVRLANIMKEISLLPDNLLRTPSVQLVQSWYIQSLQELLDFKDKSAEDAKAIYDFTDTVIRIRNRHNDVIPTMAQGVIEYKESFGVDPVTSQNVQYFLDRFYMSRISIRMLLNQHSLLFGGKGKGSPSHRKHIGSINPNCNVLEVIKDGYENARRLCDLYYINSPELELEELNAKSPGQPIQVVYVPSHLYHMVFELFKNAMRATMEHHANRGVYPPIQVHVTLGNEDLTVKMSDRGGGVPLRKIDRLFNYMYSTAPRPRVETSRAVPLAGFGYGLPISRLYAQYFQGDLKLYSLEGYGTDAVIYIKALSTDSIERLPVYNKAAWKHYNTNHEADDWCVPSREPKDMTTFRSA
UniProt O15530: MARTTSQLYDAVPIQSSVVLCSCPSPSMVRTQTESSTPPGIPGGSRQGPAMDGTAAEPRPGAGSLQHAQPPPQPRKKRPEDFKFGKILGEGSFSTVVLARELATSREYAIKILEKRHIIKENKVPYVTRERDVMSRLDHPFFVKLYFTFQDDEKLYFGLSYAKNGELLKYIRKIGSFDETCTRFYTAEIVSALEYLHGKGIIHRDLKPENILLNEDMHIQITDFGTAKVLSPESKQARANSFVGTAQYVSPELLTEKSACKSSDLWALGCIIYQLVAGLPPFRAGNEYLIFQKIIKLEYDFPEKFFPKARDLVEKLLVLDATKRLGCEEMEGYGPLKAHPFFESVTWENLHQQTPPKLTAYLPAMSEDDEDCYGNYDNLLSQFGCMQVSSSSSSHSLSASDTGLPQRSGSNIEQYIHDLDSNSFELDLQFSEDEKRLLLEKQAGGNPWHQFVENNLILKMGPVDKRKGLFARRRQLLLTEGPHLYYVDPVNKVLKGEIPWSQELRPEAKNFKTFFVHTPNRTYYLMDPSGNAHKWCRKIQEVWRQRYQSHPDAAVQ
UniProt Q9UBF8: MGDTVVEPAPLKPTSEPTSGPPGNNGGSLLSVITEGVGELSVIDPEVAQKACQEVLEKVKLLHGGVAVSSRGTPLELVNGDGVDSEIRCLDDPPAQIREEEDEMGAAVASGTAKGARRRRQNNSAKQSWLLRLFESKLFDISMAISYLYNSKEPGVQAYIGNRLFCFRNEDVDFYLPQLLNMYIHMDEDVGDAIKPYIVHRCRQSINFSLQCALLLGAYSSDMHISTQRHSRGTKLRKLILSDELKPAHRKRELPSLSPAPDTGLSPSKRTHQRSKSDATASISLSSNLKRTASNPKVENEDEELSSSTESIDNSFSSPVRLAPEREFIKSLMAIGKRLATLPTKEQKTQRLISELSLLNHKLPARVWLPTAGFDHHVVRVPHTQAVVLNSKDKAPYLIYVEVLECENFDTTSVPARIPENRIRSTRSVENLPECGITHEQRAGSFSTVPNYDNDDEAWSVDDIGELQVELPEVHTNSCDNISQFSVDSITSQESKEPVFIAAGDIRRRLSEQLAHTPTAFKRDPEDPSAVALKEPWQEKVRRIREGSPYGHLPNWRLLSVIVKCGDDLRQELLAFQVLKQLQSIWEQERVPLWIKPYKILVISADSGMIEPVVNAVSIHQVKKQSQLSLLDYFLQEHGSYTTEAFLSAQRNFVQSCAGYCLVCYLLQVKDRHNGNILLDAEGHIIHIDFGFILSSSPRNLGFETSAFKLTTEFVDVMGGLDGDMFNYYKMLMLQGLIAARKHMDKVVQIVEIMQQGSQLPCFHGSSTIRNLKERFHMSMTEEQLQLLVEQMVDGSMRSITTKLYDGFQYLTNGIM
UniProt Q05397, whole entry, looked up: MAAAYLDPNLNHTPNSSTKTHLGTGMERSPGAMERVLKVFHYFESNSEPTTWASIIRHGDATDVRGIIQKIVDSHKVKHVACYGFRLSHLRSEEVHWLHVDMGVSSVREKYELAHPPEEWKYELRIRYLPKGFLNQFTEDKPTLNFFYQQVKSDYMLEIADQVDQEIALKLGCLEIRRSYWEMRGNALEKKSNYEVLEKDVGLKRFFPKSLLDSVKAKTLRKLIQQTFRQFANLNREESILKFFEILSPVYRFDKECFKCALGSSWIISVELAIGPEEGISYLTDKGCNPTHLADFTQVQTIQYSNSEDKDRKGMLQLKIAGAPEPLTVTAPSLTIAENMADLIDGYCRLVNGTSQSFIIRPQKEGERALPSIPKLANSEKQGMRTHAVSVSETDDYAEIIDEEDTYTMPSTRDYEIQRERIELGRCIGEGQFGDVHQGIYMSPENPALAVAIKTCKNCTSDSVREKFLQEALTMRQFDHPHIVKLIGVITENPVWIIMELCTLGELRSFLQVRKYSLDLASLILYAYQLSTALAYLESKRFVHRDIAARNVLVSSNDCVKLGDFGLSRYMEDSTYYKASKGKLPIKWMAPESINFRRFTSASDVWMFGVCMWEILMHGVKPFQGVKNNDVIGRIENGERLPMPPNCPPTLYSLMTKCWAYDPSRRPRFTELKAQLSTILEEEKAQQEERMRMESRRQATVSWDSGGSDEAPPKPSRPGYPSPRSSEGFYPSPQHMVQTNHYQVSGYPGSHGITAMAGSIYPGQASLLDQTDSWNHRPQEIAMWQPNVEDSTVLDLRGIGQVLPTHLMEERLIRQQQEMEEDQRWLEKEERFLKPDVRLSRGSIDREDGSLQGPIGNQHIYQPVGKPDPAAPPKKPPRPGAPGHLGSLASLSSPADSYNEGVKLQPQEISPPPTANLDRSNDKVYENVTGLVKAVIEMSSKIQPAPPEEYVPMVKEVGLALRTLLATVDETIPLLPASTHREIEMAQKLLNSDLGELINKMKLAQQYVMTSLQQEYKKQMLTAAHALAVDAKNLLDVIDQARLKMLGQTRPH

SMILES | kinase-Nluc reporter destabilization hit call (MAPK1) | kinase-Nluc reporter destabilization hit call (MAPK4) | kinase-Nluc reporter destabilization hit call (MAPKAPK2) | kinase-Nluc reporter destabilization hit call (MKNK1) | kinase-Nluc reporter destabilization hit call (NTRK2) | kinase-Nluc reporter destabilization hit call (NTRK3) | kinase-Nluc reporter destabilization hit call (PAK4) | kinase-Nluc reporter destabilization hit call (PBK) | kinase-Nluc reporter destabilization hit call (PDGFRB) | kinase-Nluc reporter destabilization hit call (PDK1) | kinase-Nluc reporter destabilization hit call (PDPK1) | kinase-Nluc reporter destabilization hit call (PIK4CA) | kinase-Nluc reporter destabilization hit call (PIK4CB) | kinase-Nluc reporter destabilization hit call (PLK1) | kinase-Nluc reporter destabilization hit call (PRKAA1) | kinase-Nluc reporter destabilization hit call (PRKCA) | kinase-Nluc reporter destabilization hit call (PTK2) | kinase-Nluc reporter destabilization hit call (PTK2B) | kinase-Nluc reporter destabilization hit call (RAF1) | kinase-Nluc reporter destabilization hit call [1]
Cc1cc(=O)[nH]c(=S)[nH]1 [Methylthiouracil] (10 µM) | inactive: 0 | inactive: 0 | inactive: 0 | inactive: 0 | inactive: 0 | inactive: 0 | inactive: 0 | inactive: 0 | inactive: 0 | inactive: 0 | inactive: 0 | inactive: 0 | inactive: 0 | inactive: 0 | inactive: 0 | inactive: 0 | inactive: 0 | inactive: 0 | inactive: 0 | inactive: 0
CC(C)(O)c1cc(Nc2cc(Oc3cn(C4CC4)nc3C3CCOCC3)ccn2)ccn1 (10 µM) | inactive: 0 | inactive: 0 | inactive: 0 | inactive: 0 | inactive: 0 | inactive: 0 | inactive: 0 | inactive: 0 | inactive: 0 | inactive: 0 | inactive: 0 | inactive: 0 | inactive: 0 | inactive: 0 | inactive: 0 | inactive: 0 | inactive: 0 | inactive: 0 | inactive: 0 | inactive: 0
CC(C)n1cnnc1-c1cccc(NC(=O)c2cc3ccc(F)cc3[nH]2)n1 (2.5 µM) | inactive: 0 | inactive: 0 | inactive: 0 | inactive: 0 | inactive: 0 | inactive: 0 | inactive: 0 | inactive: 0 | inactive: 0 | inactive: 0 | inactive: 0 | inactive: 0 | inactive: 0 | inactive: 0 | inactive: 0 | inactive: 0 | inactive: 0 | inactive: 0 | inactive: 0 | active: 1
O=C1NC(=O)C(c2ccccc2[N+](=O)[O-])=C1Nc1ccc(O)c(Cl)c1 (10 µM) | inactive: 0 | inactive: 0 | inactive: 0 | inactive: 0 | inactive: 0 | inactive: 0 | inactive: 0 | inactive: 0 | inactive: 0 | inactive: 0 | inactive: 0 | inactive: 0 | inactive: 0 | inactive: 0 | inactive: 0 | inactive: 0 | inactive: 0 | inactive: 0 | inactive: 0 | inactive: 0
Nc1n[nH]c(N)c1N=Nc1ccc(O)cc1 (10 µM) | inactive: 0 | inactive: 0 | inactive: 0 | inactive: 0 | inactive: 0 | inactive: 0 | inactive: 0 | inactive: 0 | inactive: 0 | inactive: 0 | inactive: 0 | inactive: 0 | inactive: 0 | inactive: 0 | inactive: 0 | inactive: 0 | inactive: 0 | inactive: 0 | inactive: 0 | inactive: 0
COc1cc(-c2cc(-c3cccc(O)c3)cnc2N)cc(OC)c1OC (2.5 µM) | inactive: 0 | inactive: 0 | inactive: 0 | inactive: 0 | inactive: 0 | inactive: 0 | inactive: 0 | inactive: 0 | inactive: 0 | inactive: 0 | inactive: 0 | inactive: 0 | inactive: 0 | inactive: 0 | inactive: 0 | inactive: 0 | inactive: 0 | inactive: 0 | inactive: 0 | inactive: 0
CN(c1ccc(C(F)(F)F)cc1)S(=O)(=O)c1ccc(C(=O)Nc2nc(-c3ccccn3)cs2)cc1 (2.5 µM) | inactive: 0 | inactive: 0 | inactive: 0 | inactive: 0 | inactive: 0 | inactive: 0 | inactive: 0 | inactive: 0 | inactive: 0 | inactive: 0 | inactive: 0 | inactive: 0 | inactive: 0 | inactive: 0 | inactive: 0 | inactive: 0 | inactive: 0 | inactive: 0 | inactive: 0 | inactive: 0
Nc1nc2c(ncn2COCCO)c(=O)[nH]1 [Acyclovir] (10 µM) | inactive: 0 | inactive: 0 | inactive: 0 | inactive: 0 | inactive: 0 | inactive: 0 | inactive: 0 | inactive: 0 | inactive: 0 | inactive: 0 | inactive: 0 | inactive: 0 | inactive: 0 | inactive: 0 | inactive: 0 | inactive: 0 | inactive: 0 | inactive: 0 | inactive: 0 | inactive: 0
COC(=O)/C=C/c1ccc(O)c(OC)c1 [Ferulic acid methyl ester] (10 µM) | inactive: 0 | inactive: 0 | inactive: 0 | inactive: 0 | inactive: 0 | inactive: 0 | inactive: 0 | inactive: 0 | inactive: 0 | inactive: 0 | inactive: 0 | inactive: 0 | inactive: 0 | inactive: 0 | inactive: 0 | inactive: 0 | inactive: 0 | inactive: 0 | inactive: 0 | inactive: 0

Look-ups from the results shown:
Under kinase-Nluc reporter destabilization hit call (MAPK1), `O=C1NC(=O)C(c2ccccc2[N+](=O)[O-])=C1Nc1ccc(O)c(Cl)c1` (10 µM) has inactive: 0
Under kinase-Nluc reporter destabilization hit call (MAPKAPK2), `Nc1nc2c(ncn2COCCO)c(=O)[nH]1` [Acyclovir] (10 µM) has inactive: 0

Reference: the supplement of paper PMC12823440, “Inhibitors supercharge kinase turnover through native proteolytic circuits” (Nature, 2025)
